Taken from: PubChem BioAssay AID1259405 (NCATS, 2018)
The deposit covers about 50,000 reagents; below is an unselected part. Of all reagents, about 4,000 (8%) are marked active. 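Mouse siRNA library applied to hamster cells; one well for each siRNA.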 Unmarked entries are inactive. The numbers tell different reagents against one gene apart.

Test: 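Silenced genes that increase secreted GFP made by CHO cells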 (primary screen)
System: Chinese hamster CHO-K1 ovary cells with stable secreted eGFP expression
Reagents: single siRNA against mouse genes, 0.8 pmol siRNA per well (2 µl of 400 nM stock)
Duration: 3 days
Measured: 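Percent of the per-plate non-targeting control median for intracellular GFP per well by laser scanning cytometry and for cell viability by ATP luminescence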
Direction: GFP, % of control: higher = more GFP per well, higher productivity; viability (ATP), % of control: higher = more viable cells (more ATP)
Hit rule: 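Called active when intracellular GFP, relative to negative control, is at or above 120%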

Silencing of Hp (GeneID 15439) #1 came out at: GFP, % of control 70.1; viability (ATP), % of control 88.
Hp (GeneID 15439) #2 showed GFP, % of control 51.1; viability (ATP), % of control 35.3.
Against Hp (GeneID 15439) #3 the deposit lists GFP, % of control 52.8; viability (ATP), % of control 71.5.
With knock-down of Zic5 (GeneID 65100) #1, the record shows GFP, % of control 114; viability (ATP), % of control 94.5.
For Zic5 (GeneID 65100) #2 the deposit lists GFP, % of control 84.8; viability (ATP), % of control 74.3.
After knock-down of Abhd4 (GeneID 105501) #1, the screen gave GFP, % of control 78.3; viability (ATP), % of control 49.5.
Abhd4 (GeneID 105501) #2 gave GFP, % of control 88; viability (ATP), % of control 73.6.
For Abhd4 (GeneID 105501) #3, the values are GFP, % of control 84.2; viability (ATP), % of control 78.8.
Against Jarid2 (GeneID 16468) #1, the values are GFP, % of control 133 (active); viability (ATP), % of control 113.
After knock-down of Jarid2 (GeneID 16468) #2 the results were GFP, % of control 64.2; viability (ATP), % of control 76.
Against Jarid2 (GeneID 16468) #3 the deposit lists GFP, % of control 70.3; viability (ATP), % of control 91.6.

2 neighbouring reagents from above, quoted:
Hp (GeneID 15439) #3 — GFP, % of control: 52.8; viability (ATP), % of control: 71.5
Zic5 (GeneID 65100) #1 — GFP, % of control: 114; viability (ATP), % of control: 94.5

The results go on:
With knock-down of Cldn5 (GeneID 12741) #1 the results were GFP, % of control 90.9; viability (ATP), % of control 69.2.
Cldn5 (GeneID 12741) #2 scored GFP, % of control 103; viability (ATP), % of control 76.8.
For Cldn5 (GeneID 12741) #3 the deposit lists GFP, % of control 88.7; viability (ATP), % of control 99.4.
Krt9 (GeneID 107656) #1 showed GFP, % of control 29; viability (ATP), % of control 61.
Krt9 (GeneID 107656) #2 scored GFP, % of control 64.2; viability (ATP), % of control 66.8.
For Krt9 (GeneID 107656) #3 the deposit lists GFP, % of control 53.2; viability (ATP), % of control 72.1.
